Laboratory results reported in US20240350642A1, “SUSTAINED RELEASE DOSAGE FORMS FOR LOW SOLUBILITY COMPOUNDS AND METHODS FOR PREPARING OF THESE SUSTAINED RELEASE DOSAGE FORMS” (priority 2023, published 2024).
The name of at least one read-out is uncertain.

Assay: Solubility of Cannabidiol in USP dissolution apparatus before and after adding HP-β-Cyclodextrin (experiment 12)
Format: physicochemical
Details: pH 2, after HP-β-Cyclodextrin addition
Experimental: FIGS. 5A and 5B refer to a method to determine the solubility of low soluble API and determination of the solubility enhancing effect of an API: Cyclodextrin complex. Accurately weighted amounts of the low soluble API, higher than its intrinsic solubility in the volume and pH of the aqueous media, is added to a defined volume into a vessel of the standard dissolution test apparatus 1 or 2 as defined in US Pharmacopeia (chapter <711> “Dissolution”) at pH conditions suitable for the API as explained above and at standard temperature conditions at the site of absorption e.g., 37° C. and paddle rotation of 50 rpm, with either water or standard aqueous media at pH 1, pH 2, water or buffer pH 6.8. It is to be assured by visual check that the API is not or not fully dissolved to ensure that the added amount is higher than the intrinsic solubility of the API. The dissolution of the API is checked for between 30 Min. and 3 hours, and the amount dissolved is measured with a suitable assay method like UV or HPLC and plotted against time. […]
An accurately weighted amount of Cannabidiol was dissolved in ethanol resulting in a solution containing 5 mg/ml. […] The amount of dissolved CBD was monitored. […]

## C=C(C)[C@@H]1CCC(C)=C[C@H]1c1c(O)cc(CCCCC)cc1O [CBD, Cannabidiol]
  recovery of dissolved CBD relative to initially added amount: 70-95%
